Values from PubChem BioAssay AID504804 (Drosophila RNAi Screening Center, 2011)

Purpose: 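dsRNAs that improve Kc cell survival under doxorubicin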 (primary screen)
Cell system: Drosophila Kc cells
Reagents: long dsRNA against Drosophila genes, 0.5 µg dsRNA per well
Timing: 96 h (48 h knock-down, then 48 h drug)
Challenge: doxorubicin 5 µg/ml for 48 h, added 48 h after dsRNA
Measured: 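Viability measured as cellular ATP by luminescence after 48 h knock-down then 48 h doxorubicin at 5 µg/ml; unnormalised plate counts for each replicate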
Scale: raw ATP luminescence: higher = more viable cells, protection from doxorubicin
Active means: 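Active when both duplicate wells lie at least 2 SD above the plate mean and protection is confirmed by rescreening and independent dsRNAs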
The screen tested about 19,000 reagents; shown is an unselected part of those with a known target gene and a result. In the full data, 47 (0.25%) were called active. 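Signals are raw, not normalised; exact z-scores behind calls not deposited; actives needed confirmation, so some wells reaching 2 SD are inactive.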

Osi4 (Osiris 4) [DRSC12134]
- raw ATP luminescence, replicate 1: 53290
- raw ATP luminescence, replicate 2: 55723
- outcome: inactive

CG13038 [DRSC09919]
- raw ATP luminescence, replicate 1: 49947
- raw ATP luminescence, replicate 2: 47993
- outcome: inactive

CG8607 [DRSC11012]
- raw ATP luminescence, replicate 1: 73290
- raw ATP luminescence, replicate 2: 99203
- outcome: inactive

CG8026 [DRSC07055]
- raw ATP luminescence, replicate 1: 85500
- raw ATP luminescence, replicate 2: 82247
- outcome: inactive

CG8026 [DRSC07056]
- raw ATP luminescence, replicate 1: 56867
- raw ATP luminescence, replicate 2: 70293
- outcome: inactive

stck (steamer duck) [DRSC17070]
- raw ATP luminescence, replicate 1: 68837
- raw ATP luminescence, replicate 2: 50313
- outcome: inactive

CG32428 [DRSC11697]
- raw ATP luminescence, replicate 1: 23737
- raw ATP luminescence, replicate 2: 16310
- outcome: inactive

CG32428 [DRSC11768]
- raw ATP luminescence, replicate 1: 79730
- raw ATP luminescence, replicate 2: 87763
- outcome: inactive

Single entries from the entries so far:
Under “outcome”, CG32428 [DRSC11697] reads inactive
Under “raw ATP luminescence, replicate 1”, stck (steamer duck) [DRSC17070] reads 68837

The listing continues:
prod (proliferation disrupter) [DRSC07667]
- raw ATP luminescence, replicate 1: 55003
- raw ATP luminescence, replicate 2: 62990
- outcome: inactive

CG33642 [DRSC01325]
- raw ATP luminescence, replicate 1: 2.89e5
- raw ATP luminescence, replicate 2: 2.37e5
- outcome: inactive

BicD (Bicaudal D) [DRSC02006]
- raw ATP luminescence, replicate 1: 85897
- raw ATP luminescence, replicate 2: 71000
- outcome: inactive

flfl (falafel) [DRSC16474]
- raw ATP luminescence, replicate 1: 42980
- raw ATP luminescence, replicate 2: 28880
- outcome: inactive
